# These are yes or no findings as the source states them, for the method shown. In cells and extracts the contact can be indirect. These calls come from enrichment with a bait or labelling near it, and not all partners need be listed.
# Protein sequences, listed by entry. Tags and fused reporters are not part of them. Residues count along the entry.
# UniProt P08151: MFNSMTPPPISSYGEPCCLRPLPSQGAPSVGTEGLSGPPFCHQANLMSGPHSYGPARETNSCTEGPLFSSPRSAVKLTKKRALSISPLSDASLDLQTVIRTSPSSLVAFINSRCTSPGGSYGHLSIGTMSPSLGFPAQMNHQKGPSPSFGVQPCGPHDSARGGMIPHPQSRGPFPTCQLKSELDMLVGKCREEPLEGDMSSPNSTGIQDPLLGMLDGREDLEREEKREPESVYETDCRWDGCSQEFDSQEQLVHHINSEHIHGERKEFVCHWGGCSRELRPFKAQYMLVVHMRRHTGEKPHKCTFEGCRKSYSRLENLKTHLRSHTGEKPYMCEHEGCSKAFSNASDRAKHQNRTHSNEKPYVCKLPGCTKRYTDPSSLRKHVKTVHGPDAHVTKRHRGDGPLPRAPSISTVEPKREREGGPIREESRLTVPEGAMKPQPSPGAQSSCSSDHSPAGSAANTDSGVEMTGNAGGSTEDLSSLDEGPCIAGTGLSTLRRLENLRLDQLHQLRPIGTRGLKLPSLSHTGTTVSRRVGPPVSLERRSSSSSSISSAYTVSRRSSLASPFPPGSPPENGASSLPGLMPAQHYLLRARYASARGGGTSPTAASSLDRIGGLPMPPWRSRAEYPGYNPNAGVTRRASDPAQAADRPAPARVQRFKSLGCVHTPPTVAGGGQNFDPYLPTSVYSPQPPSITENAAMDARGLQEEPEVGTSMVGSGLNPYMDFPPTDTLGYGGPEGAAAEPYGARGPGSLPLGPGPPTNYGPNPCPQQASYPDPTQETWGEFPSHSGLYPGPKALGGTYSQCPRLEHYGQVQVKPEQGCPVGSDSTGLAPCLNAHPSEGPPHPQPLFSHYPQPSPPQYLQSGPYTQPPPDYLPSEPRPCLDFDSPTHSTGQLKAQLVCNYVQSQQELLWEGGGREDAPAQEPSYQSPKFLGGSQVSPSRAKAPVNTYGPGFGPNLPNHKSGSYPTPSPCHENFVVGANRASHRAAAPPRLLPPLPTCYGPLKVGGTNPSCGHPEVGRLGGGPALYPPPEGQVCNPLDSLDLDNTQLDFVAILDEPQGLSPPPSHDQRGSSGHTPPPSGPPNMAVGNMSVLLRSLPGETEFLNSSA
# UniProt P10809, residues 27-573: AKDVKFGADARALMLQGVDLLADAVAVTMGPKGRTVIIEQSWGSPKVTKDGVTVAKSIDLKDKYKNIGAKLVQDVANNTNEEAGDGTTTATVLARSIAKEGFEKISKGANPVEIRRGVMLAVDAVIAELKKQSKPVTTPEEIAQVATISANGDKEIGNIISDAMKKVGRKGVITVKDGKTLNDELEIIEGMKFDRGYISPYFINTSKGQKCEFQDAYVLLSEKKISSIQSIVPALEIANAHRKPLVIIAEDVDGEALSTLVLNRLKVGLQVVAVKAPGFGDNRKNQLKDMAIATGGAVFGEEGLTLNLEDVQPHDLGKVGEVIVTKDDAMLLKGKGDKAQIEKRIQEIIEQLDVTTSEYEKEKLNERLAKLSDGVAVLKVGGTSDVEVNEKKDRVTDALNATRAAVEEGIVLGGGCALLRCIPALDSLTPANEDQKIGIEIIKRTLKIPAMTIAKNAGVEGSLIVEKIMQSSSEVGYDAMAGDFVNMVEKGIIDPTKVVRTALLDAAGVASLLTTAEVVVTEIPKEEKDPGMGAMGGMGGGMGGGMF
# UniProt Q05639: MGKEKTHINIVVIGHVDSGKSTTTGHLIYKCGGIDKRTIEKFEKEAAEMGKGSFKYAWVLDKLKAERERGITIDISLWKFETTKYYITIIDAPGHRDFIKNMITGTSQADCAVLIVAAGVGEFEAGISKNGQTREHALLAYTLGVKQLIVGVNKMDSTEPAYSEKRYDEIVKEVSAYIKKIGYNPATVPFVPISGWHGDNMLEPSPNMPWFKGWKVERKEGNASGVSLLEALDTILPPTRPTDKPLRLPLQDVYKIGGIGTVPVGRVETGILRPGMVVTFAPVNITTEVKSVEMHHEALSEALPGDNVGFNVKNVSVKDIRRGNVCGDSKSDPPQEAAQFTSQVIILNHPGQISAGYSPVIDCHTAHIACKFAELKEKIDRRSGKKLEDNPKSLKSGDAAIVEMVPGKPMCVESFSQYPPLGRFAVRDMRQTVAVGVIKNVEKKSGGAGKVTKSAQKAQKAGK
# UniProt Q14764: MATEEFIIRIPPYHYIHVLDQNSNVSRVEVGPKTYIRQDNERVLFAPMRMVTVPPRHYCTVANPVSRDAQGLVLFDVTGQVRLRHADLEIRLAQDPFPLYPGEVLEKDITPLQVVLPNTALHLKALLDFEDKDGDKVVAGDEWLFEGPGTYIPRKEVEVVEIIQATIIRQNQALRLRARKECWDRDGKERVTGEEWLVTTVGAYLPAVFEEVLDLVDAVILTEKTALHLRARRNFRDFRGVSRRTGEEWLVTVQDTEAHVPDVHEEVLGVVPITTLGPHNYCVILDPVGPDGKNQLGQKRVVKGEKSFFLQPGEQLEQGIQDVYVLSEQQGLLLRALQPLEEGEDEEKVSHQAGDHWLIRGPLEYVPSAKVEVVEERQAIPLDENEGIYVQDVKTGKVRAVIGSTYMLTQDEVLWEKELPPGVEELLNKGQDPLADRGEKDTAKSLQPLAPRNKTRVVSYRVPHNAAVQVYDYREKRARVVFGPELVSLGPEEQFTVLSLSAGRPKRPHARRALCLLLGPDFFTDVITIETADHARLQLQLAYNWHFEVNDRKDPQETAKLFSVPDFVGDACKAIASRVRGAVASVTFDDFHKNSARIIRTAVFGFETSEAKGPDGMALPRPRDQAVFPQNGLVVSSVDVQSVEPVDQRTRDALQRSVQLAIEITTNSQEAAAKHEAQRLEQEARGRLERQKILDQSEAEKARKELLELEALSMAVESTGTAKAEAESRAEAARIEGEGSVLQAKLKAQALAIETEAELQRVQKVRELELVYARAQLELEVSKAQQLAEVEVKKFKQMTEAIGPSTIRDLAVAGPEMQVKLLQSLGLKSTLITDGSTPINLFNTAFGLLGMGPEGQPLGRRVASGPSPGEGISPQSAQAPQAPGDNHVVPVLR
# Molecular target: GLI1 (endogenous) (human (endogenous in SW1353 and HCS2/8)) (UniProt P08151)
# Assay: affinity purification with mass spectrometry; IP with GLI1 antibody in SW1353 cell lysates, silver staining, LC-MS/MS; normal IgG as negative control
row,binding,Substance
1,binds,HSP60 (from UniProt P10809 27-573)
2,binds,eEF1A2 (from UniProt Q05639 1-463)
3,binds,major vault protein (endogenous) (from UniProt Q14764 1-893)

# Source: paper PMC8257592
